Consider one sequence from publication PMC12948193.

The exact form of at least one protein or probe is not confirmed. No signal at the amounts used counts as a negative.

The test system of the data set is ARF10 DNA-binding domain (6xHis-ARF10). Description: competition with a labelled probe. As to conditions: 200-fold excess vs N1, complex unchanged; EMSA: labeled probe 0.2 uM, LightShift Chemiluminescent EMSA Kit binding buffer (salt and pH not given), 25 C, 30 min; 4% native PAGE, 0.5x TBE; recombinant protein; protein details: 6xHis (pCold-His). In general terms: In EMSA bound probe runs differently from free probe, usually more slowly.

As to “ATGGGTAGTCTCAAAAAAAATAAAGGGGGAGGTGA (double strand) [pNPF2.13-ARF10-probe2-M-competitor]”, the binding result is recorded as “no binding”.
